Read-outs that look alike come from different tables or passages of the source. No constants are given. Whether binding was seen depends on the method and setting. For part of these data: Binding seen in cells or lysates may run through a third protein. Some binding calls cover weakened binding; strength is not graded here. For part of these data: Where a sequence is shown, tags or fusion partners need not be part of it.

Protein sequences, listed by entry. Tags and fused reporters are not part of them.
UniProt Q9BQQ3: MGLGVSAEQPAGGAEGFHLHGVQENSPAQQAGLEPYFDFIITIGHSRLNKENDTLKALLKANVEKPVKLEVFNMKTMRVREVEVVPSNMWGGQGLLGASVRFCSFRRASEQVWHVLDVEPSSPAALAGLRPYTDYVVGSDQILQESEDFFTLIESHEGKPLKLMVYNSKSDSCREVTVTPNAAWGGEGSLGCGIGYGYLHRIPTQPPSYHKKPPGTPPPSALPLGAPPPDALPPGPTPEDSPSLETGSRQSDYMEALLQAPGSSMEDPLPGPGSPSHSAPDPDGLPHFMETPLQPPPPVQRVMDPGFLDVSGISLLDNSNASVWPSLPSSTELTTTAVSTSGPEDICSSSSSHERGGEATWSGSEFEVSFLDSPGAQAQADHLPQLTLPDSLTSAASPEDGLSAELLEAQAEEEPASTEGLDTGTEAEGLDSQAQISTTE
UniProt P51114: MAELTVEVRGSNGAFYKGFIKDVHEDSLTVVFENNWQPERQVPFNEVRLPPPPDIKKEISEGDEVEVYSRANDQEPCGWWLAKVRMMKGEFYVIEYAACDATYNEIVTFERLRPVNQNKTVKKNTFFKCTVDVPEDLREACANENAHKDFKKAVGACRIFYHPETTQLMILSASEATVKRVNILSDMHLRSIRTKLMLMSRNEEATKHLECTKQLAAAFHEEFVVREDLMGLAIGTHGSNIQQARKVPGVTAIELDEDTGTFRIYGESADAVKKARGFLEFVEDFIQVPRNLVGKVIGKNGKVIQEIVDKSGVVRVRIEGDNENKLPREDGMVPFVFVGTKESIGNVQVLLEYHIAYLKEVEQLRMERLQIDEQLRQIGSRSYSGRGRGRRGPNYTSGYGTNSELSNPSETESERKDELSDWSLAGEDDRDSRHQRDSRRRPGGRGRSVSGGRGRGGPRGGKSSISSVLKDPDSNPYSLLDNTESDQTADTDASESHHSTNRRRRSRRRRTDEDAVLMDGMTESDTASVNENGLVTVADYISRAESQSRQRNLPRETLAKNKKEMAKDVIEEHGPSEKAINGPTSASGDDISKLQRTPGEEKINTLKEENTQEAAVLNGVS
UniProt Q13283: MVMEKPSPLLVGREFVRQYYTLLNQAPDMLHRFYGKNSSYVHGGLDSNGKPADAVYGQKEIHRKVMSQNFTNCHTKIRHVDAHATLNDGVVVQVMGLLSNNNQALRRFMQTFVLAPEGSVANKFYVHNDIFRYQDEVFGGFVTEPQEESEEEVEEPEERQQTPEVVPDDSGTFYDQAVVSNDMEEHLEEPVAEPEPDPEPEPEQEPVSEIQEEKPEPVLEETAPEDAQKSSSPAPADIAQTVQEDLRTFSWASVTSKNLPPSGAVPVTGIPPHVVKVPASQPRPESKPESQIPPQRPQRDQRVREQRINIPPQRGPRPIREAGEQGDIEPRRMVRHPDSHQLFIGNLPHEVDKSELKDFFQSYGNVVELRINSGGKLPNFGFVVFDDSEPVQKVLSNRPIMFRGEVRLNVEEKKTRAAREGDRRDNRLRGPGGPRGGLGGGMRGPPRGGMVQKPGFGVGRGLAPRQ
UniProt P11940: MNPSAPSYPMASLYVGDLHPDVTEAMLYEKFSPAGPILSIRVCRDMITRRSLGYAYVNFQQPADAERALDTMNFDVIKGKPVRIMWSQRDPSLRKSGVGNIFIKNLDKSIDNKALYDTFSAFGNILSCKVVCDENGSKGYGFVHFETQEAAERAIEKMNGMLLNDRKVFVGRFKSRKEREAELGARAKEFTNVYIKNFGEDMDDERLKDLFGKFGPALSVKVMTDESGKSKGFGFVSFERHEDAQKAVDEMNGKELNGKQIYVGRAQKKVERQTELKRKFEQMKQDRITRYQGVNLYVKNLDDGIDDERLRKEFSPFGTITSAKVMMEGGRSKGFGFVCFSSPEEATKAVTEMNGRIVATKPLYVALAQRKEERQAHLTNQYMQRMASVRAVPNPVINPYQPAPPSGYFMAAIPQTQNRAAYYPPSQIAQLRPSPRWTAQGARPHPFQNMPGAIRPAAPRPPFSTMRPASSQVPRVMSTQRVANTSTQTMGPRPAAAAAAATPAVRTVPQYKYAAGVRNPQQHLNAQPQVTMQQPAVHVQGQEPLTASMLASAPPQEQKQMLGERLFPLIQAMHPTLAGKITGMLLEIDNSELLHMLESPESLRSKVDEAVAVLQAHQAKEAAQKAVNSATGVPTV

For test [1], the target named is T1, GM130 (human (endogenous in SV589)) (UniProt Q08379).
T1 sequence: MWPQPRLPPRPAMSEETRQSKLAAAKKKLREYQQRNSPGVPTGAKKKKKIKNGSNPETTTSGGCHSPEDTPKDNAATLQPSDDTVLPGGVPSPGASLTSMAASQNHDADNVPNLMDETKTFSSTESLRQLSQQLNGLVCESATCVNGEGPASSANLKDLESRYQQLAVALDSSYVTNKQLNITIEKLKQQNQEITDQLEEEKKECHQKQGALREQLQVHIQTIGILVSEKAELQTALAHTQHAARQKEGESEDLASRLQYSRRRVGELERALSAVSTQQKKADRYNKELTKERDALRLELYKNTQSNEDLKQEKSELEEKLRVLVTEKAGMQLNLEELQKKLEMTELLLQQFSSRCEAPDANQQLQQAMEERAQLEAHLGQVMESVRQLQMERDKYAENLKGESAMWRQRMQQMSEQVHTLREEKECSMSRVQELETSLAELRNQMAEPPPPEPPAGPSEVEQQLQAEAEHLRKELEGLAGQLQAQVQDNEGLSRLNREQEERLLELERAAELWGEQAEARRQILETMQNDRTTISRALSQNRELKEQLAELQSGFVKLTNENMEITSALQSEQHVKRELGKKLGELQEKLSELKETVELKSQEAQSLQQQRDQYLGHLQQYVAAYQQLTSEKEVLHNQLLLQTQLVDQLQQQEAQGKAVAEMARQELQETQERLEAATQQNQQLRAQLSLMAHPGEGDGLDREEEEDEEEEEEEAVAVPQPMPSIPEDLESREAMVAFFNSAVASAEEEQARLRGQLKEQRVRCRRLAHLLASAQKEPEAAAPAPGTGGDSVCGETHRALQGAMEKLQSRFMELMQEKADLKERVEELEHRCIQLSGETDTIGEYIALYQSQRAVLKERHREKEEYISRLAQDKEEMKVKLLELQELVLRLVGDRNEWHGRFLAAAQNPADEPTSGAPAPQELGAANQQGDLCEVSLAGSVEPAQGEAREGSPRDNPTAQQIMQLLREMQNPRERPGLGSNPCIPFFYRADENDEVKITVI
Put plainly: co-IP.

Test [2] deals with T1, GM130 (human (endogenous in SV589)). Put plainly: co-IP. This is another data set of the same source.
Test [3] addresses GRASP65 (endogenous, untagged) (human (endogenous in SV589)) (UniProt Q9BQQ3). Put plainly: co-IP.
The target in test [4] is GRASP65-3xFlag-mAID (human (endogenous in RC65, SV589-derived)) (UniProt Q9BQQ3). Put plainly: co-IP.
Another test has as its target GM130 N122-his (rat) (UniProt Q62839). Put plainly: cross-linking.
In test [5] the target is GRASP65 (endogenous, untagged) (human (endogenous in SV589)) (UniProt Q9BQQ3). Put plainly: co-IP. The source holds these as a separate data set.
The target in test [6] is GRASP65-3xFlag-mAID (human (endogenous in RC65, SV589-derived)) (UniProt Q9BQQ3). Put plainly: co-IP. This is another data set of the same source.

For “GRASP65 (endogenous, untagged) (from UniProt Q9BQQ3 1-440)”, the binding result in test [1] and in test [2] was “binds” throughout. Take “FXR1 (Fragile X mental retardation syndrome-related protein 1) (from UniProt P51114 1-621)”: the binding result in test [3] and in test [4] was “binds” in each case. For “G3BP1 (G3BP Stress Granule Assembly Factor 1) (from UniProt Q13283 1-466)”, in test [4], the binding entry is “binds”.

Regarding “PABPC1 (PABP/Polyadenylate-binding protein 1) (from UniProt P11940 1-636)”, the binding entry in test [4] was “binds”.

B1: GM130 N122-his (domain or fragment, UniProt Q62839 1-122)
chain: MWPPRFPPPRPGMSEETRQSKLAAAKKKLREYQQKNSPGVPAGAKKKKKIKNGHSPERTSASDCQSAENVPTDHTAPAPPSTAAATMFLGVVPSPDADLIQSHDAGNCSNLMEETKTFSSTE
In the case of B1, the binding entry with GM130 N122-his (rat) is “no binding (tested: 1 mg/ml or 2 mg/ml)”.

B2: GM130 (protein, UniProt Q08379 1-1002)
chain: MWPQPRLPPRPAMSEETRQSKLAAAKKKLREYQQRNSPGVPTGAKKKKKIKNGSNPETTTSGGCHSPEDTPKDNAATLQPSDDTVLPGGVPSPGASLTSMAASQNHDADNVPNLMDETKTFSSTESLRQLSQQLNGLVCESATCVNGEGPASSANLKDLESRYQQLAVALDSSYVTNKQLNITIEKLKQQNQEITDQLEEEKKECHQKQGALREQLQVHIQTIGILVSEKAELQTALAHTQHAARQKEGESEDLASRLQYSRRRVGELERALSAVSTQQKKADRYNKELTKERDALRLELYKNTQSNEDLKQEKSELEEKLRVLVTEKAGMQLNLEELQKKLEMTELLLQQFSSRCEAPDANQQLQQAMEERAQLEAHLGQVMESVRQLQMERDKYAENLKGESAMWRQRMQQMSEQVHTLREEKECSMSRVQELETSLAELRNQMAEPPPPEPPAGPSEVEQQLQAEAEHLRKELEGLAGQLQAQVQDNEGLSRLNREQEERLLELERAAELWGEQAEARRQILETMQNDRTTISRALSQNRELKEQLAELQSGFVKLTNENMEITSALQSEQHVKRELGKKLGELQEKLSELKETVELKSQEAQSLQQQRDQYLGHLQQYVAAYQQLTSEKEVLHNQLLLQTQLVDQLQQQEAQGKAVAEMARQELQETQERLEAATQQNQQLRAQLSLMAHPGEGDGLDREEEEDEEEEEEEAVAVPQPMPSIPEDLESREAMVAFFNSAVASAEEEQARLRGQLKEQRVRCRRLAHLLASAQKEPEAAAPAPGTGGDSVCGETHRALQGAMEKLQSRFMELMQEKADLKERVEELEHRCIQLSGETDTIGEYIALYQSQRAVLKERHREKEEYISRLAQDKEEMKVKLLELQELVLRLVGDRNEWHGRFLAAAQNPADEPTSGAPAPQELGAANQQGDLCEVSLAGSVEPAQGEAREGSPRDNPTAQQIMQLLREMQNPRERPGLGSNPCIPFFYRADENDEVKITVI
With B2, the binding result in test [5] and in test [6] was “binds” throughout.

The values are drawn from publication doi:10.1101/2023.03.02.530905 (bioRxiv, 2023).
